No constants are given. Whether binding was seen depends on the method and setting. Binding seen in cells or lysates may run through a third protein. Some entries that bind do so weakly or less than the wild type. For some of these results: Sequences can lack the tags named with a protein.
Columns and labels:
HA-NEDD4L = HA-NEDD4L (UniProt Q96PU5); experiment: co-IP; HUVECs co-transfected with His-HIF-1α, HA-NEDD4L and Flag-RAB11FIP3-FL; anti-HA and anti-His antibodies
[1] = biological target: T1, Flag-RAB11FIP3-FL (full-length RAB11FIP3) (human) (UniProt O75154); experiment: co-IP; Flag-RAB11FIP3-FL and His-HIF-1α co-transfected into HUVECs; lysate, magnetic beads and specific antibodies, Western blot
T1 sequence: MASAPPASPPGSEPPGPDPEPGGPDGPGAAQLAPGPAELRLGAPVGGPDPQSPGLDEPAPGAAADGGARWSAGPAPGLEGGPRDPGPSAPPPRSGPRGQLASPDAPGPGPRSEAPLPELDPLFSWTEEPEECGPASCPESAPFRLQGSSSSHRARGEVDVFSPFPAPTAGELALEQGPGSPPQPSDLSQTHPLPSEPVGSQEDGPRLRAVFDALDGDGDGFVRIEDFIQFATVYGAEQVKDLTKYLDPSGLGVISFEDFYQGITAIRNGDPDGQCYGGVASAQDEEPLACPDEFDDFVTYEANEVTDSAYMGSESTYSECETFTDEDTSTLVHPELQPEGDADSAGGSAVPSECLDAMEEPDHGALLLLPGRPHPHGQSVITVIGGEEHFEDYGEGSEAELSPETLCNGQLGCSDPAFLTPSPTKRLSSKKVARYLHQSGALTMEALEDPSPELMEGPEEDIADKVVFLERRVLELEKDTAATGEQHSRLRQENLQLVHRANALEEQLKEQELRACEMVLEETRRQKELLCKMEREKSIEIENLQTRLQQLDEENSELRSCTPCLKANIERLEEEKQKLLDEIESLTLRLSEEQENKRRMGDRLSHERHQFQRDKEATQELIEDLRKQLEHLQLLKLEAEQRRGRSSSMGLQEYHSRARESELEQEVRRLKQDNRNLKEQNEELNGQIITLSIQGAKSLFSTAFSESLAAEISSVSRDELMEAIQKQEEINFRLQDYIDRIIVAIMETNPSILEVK

By UniProt entry, the sequences of proteins in these tests, tags left out.
UniProt Q96PU5: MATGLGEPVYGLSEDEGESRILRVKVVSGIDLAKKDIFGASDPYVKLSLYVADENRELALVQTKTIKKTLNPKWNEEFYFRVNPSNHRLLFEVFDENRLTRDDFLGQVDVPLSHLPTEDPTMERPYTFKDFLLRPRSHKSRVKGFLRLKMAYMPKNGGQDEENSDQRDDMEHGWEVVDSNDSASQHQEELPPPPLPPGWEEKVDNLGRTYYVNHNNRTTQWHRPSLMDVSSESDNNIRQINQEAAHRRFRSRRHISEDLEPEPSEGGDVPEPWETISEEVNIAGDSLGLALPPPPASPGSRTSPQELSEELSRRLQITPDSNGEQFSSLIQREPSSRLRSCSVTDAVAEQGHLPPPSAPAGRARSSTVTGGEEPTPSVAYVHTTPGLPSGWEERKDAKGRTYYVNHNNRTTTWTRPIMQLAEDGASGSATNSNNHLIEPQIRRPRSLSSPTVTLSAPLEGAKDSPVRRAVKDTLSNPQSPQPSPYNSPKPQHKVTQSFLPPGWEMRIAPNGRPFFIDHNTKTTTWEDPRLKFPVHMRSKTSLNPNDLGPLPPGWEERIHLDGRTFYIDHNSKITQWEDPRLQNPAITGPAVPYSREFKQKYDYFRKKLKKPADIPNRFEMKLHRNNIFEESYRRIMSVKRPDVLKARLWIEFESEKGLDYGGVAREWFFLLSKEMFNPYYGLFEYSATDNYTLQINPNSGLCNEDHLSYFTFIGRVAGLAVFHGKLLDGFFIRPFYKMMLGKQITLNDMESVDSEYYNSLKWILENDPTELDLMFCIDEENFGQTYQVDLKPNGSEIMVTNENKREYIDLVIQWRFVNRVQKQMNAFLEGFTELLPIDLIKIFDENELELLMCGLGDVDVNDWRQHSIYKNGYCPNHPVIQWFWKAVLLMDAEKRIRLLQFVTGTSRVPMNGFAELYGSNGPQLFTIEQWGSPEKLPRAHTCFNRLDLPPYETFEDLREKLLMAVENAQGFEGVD
UniProt Q16665: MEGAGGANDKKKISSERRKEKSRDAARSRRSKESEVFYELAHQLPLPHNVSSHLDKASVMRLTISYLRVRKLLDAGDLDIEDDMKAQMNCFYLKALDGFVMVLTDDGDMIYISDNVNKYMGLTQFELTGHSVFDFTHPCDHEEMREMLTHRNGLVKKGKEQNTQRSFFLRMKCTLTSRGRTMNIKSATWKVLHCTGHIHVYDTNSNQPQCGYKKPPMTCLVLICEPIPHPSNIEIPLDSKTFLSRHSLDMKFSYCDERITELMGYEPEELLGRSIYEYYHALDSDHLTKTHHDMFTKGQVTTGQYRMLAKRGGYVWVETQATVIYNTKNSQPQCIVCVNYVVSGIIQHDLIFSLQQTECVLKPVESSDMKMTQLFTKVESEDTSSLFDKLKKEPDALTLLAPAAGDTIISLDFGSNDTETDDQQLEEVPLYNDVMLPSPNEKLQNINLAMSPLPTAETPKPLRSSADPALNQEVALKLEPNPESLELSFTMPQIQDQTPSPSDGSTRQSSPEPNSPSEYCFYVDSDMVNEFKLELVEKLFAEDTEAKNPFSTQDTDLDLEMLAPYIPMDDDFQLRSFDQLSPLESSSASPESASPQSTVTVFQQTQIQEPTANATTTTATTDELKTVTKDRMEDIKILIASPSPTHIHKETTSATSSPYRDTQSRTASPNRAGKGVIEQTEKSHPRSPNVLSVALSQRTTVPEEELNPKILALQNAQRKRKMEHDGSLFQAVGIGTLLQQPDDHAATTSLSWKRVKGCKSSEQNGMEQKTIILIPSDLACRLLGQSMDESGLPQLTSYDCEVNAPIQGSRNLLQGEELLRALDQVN

[2] = biological target: endogenous NEDD4L (human (endogenous in HUVECs)) (UniProt Q96PU5); experiment: co-IP; HUVEC lysate; whether the proteins were endogenous or transfected is not stated
[3] = biological target: T2, endogenous RAB11FIP3-FL (human (endogenous in HUVECs)) (UniProt O75154); experiment: co-IP; endogenous proteins, cell lysate, magnetic beads and specific antibodies, Western blot
T2 sequence: T1 sequence

Row | Substance | binding (HA-NEDD4L) | binding [1] | binding [2] | binding [3]
1 | His-HIF-1α (from UniProt Q16665 1-826) | binds | binds | – | –
2 | endogenous HIF-1α (from UniProt Q16665 1-826) | – | – | binds | binds

Source: paper PMC12320866
